Experimental findings from article PMC6447637 are described below.

The target in this assay is NaV1.4 CTerm Short (residues 1599–1754), as co-purified with CaM for crystallization (human) (UniProt P35499). In words: crystal structure; NaV1.4 CTerm Short–CaM complex with 20 mM CaCl2, 20 mM MgCl2 and the DIII–DIV linker peptide at a 1:1 ratio with the complex (800 µM), hanging drop at 18 °C, MORPHEUS condition F8, pH 7.5; 3.30 Å; both purified.

No constants are given. Whether binding was seen depends on the method and setting.

For “NaV1.4 CTerm Short (residues 1599–1754), as co-purified with CaM for crystallization (from UniProt P35499 1599-1754) (domain or fragment)”, the binding result is “no binding”.
